Measurements published in doi:10.1101/2023.11.08.566258.
Results are given in words; binding and its absence hold for the method and conditions named. In cells and extracts the contact can be indirect. Some binding calls cover weakened binding; strength is not graded here. Sequences can lack the tags named with a protein.

T1: Prominin-1 (Prom1), wild type, C-terminally Strep-tagged (human) (UniProt O43490)
T1 sequence: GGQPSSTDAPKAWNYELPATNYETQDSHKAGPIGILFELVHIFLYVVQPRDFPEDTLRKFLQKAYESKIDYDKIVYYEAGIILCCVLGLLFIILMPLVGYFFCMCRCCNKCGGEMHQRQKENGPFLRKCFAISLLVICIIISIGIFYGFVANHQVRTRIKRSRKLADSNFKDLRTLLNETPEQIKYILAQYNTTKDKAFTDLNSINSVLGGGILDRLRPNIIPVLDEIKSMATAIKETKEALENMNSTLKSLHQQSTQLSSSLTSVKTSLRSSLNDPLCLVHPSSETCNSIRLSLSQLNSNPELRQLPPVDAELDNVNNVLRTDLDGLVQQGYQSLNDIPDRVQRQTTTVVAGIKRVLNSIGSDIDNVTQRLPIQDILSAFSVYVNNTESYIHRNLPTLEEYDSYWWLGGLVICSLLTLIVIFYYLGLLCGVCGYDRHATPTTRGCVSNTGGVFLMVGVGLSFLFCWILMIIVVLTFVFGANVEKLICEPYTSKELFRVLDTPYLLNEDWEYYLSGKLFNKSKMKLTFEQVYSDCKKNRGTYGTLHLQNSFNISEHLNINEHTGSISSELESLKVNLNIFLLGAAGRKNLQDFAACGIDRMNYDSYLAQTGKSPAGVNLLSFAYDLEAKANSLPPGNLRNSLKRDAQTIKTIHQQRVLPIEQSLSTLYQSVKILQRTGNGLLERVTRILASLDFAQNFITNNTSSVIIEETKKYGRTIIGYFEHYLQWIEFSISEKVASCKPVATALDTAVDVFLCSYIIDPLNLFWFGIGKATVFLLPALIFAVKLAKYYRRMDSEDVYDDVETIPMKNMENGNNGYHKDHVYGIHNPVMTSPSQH


Legend:
[1] = molecular target: T1, Prominin-1 (Prom1), wild type, C-terminally Strep-tagged (human); experiment: co-IP; Prom1-Strep immunopurified on StrepTactinXT resin from EVs solubilized with 1% DDM (25 mM HEPES-NaOH pH 7.8, 150 mM NaCl, 5 mM CaCl2, 4 °C); co-purified Pcdh21-mNeonGreen measured by fluorescence imaging of the resin beads (FITC filter set); control without Prom1-Strep
[2] = molecular target: T1, Prominin-1 (Prom1), wild type, C-terminally Strep-tagged (human); experiment: co-IP; EVs from cells co-transfected with Strep-tagged and mScarlet-tagged Prom1, solubilized with 1% DDM; Strep resin; co-purified Prom1-mScarlet measured by fluorescence imaging of the resin beads (CY3 filter set); control with Prom1-mScarlet alone

Row | binding [1] | binding [2] | Binder
1 | binds | – | Protocadherin-21 (Pcdh21), mNeonGreen-tagged (protein, UniProt Q96JP9-1 20-859) QANFAPHFFDNGVGSTNGNMALFSLPEDTPVGSHVYTLNGTDPEGDPISYHISFDPSTRSVFSVDPTFGNITLVEELDREREDEIEAIISISDGLNLVAEKVVILVTDANDEAPRFIQEPYVALVPEDIPAGSIIFKVHAVDRDTGSGGSVTYFLQNLHSPFAVDRHSGVLRLQAGATLDYERSRTHYITVVAKDGGGRLHGADVVFSATTTVTVNVEDVQDMAPVFVGTPYYGYVYEDTLPGSEVLKVVAMDGDRGKPNRILYSLVNGNDGAFEINETSGAISITQSPAQLQREVYELHVQVTEMSPAGSPAAQATVPVTIRIVDLNNHPPTFYGESGPQNRFELSMNEHPPQGEILRGLKITVNDSDQGANAKFNLQLVGPRGIFRVVPQTVLNEAQVTIIVENSAAIDFEKSKVLTFKLLAVEVNTPEKFSSTADVVIQLLDTNDNVPKFDSLYYVARIPENAPGGSSVVAVTAVDPDTGPWGEVKYSTYGTGADLFLIHPSTGLIYTQPWASLDAEATARYNFYVKAEDMEGKYSVAEVFITLLDVNDHPPQFGKSVQKKTMVLGTPVKIEAIDEDAEEPNNLVDYSITHAEPANVFDINSHTGEIWLKNSIRSLDALHNITPGRDCLWSLEVQAKDRGSPSFSTTALLKIDITDAETLSRSPMAAFLIQTKDNPMKAVGVLAGTMATVVAITVLISTATFWRNKKSNKVLPMRRVLRKRPSPAPRTIRIEWLKSKSTKAATKFMLKEKPPNENCNNNSPESSLLPRAPALPPPPSVAPSTGAAQWTVPTVSGSLTPQPTQPPPKPKTMGSPVQSTLISELKQKFEKKSVHNKAYF
2 | – | binds | Prominin-1 (Prom1), wild type, C-terminally Strep-tagged (protein, UniProt O43490-2 20-856) GGQPSSTDAPKAWNYELPATNYETQDSHKAGPIGILFELVHIFLYVVQPRDFPEDTLRKFLQKAYESKIDYDKIVYYEAGIILCCVLGLLFIILMPLVGYFFCMCRCCNKCGGEMHQRQKENGPFLRKCFAISLLVICIIISIGIFYGFVANHQVRTRIKRSRKLADSNFKDLRTLLNETPEQIKYILAQYNTTKDKAFTDLNSINSVLGGGILDRLRPNIIPVLDEIKSMATAIKETKEALENMNSTLKSLHQQSTQLSSSLTSVKTSLRSSLNDPLCLVHPSSETCNSIRLSLSQLNSNPELRQLPPVDAELDNVNNVLRTDLDGLVQQGYQSLNDIPDRVQRQTTTVVAGIKRVLNSIGSDIDNVTQRLPIQDILSAFSVYVNNTESYIHRNLPTLEEYDSYWWLGGLVICSLLTLIVIFYYLGLLCGVCGYDRHATPTTRGCVSNTGGVFLMVGVGLSFLFCWILMIIVVLTFVFGANVEKLICEPYTSKELFRVLDTPYLLNEDWEYYLSGKLFNKSKMKLTFEQVYSDCKKNRGTYGTLHLQNSFNISEHLNINEHTGSISSELESLKVNLNIFLLGAAGRKNLQDFAACGIDRMNYDSYLAQTGKSPAGVNLLSFAYDLEAKANSLPPGNLRNSLKRDAQTIKTIHQQRVLPIEQSLSTLYQSVKILQRTGNGLLERVTRILASLDFAQNFITNNTSSVIIEETKKYGRTIIGYFEHYLQWIEFSISEKVASCKPVATALDTAVDVFLCSYIIDPLNLFWFGIGKATVFLLPALIFAVKLAKYYRRMDSEDVYDDVETIPMKNMENGNNGYHKDHVYGIHNPVMTSPSQH
